Results published in article PMC7347010.
No constants are given. Whether binding was seen depends on the method and setting. In cells and extracts the contact can be indirect. Here binding means that the protein was enriched with, or labelled near, the bait; the list need not be complete.

The chains behind the UniProt entries cited, without tags or fusion partners.
UniProt O95983: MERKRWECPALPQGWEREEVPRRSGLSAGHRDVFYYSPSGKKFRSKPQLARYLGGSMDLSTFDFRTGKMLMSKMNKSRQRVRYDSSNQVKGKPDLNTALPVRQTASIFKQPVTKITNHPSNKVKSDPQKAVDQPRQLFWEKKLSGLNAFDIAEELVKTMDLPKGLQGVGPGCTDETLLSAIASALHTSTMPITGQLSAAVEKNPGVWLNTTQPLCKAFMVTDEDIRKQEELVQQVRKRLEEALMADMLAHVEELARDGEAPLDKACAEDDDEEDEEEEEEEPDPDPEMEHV
UniProt Q9Z2D8: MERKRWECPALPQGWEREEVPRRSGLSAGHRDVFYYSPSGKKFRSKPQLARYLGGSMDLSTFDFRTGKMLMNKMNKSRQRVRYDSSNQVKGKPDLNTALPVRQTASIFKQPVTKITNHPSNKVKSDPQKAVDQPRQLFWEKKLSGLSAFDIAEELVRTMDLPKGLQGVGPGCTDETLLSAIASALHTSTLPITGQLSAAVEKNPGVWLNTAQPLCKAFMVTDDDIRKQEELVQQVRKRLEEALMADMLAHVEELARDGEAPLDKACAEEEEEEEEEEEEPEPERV

Assays:
[1] = molecular target: MBD3-3xFLAG (endogenously tagged, human iPS cells) (human (endogenous in hiPSCs)) (UniProt O95983); assay: affinity purification with mass spectrometry; anti-FLAG sepharose on nuclear extract of MBD3-3xFLAG knock-in hiPSCs; three independent immunoprecipitations from one preparation of nuclear extract
[2] = molecular target: Mbd3-3xFLAG (endogenously tagged, mouse epiStem cells) (mouse (endogenous in mEpiSCs)) (UniProt Q9Z2D8); assay: affinity purification with mass spectrometry; anti-FLAG sepharose on nuclear extract of Mbd3-3xFLAG knock-in mEpiSCs; three independent immunoprecipitations each from two independent cell lines

| Binder | binding [1] | binding [2] |
| --- | --- | --- |
| BEND3 (human) (protein, UniProt Q5T5X7 1-828) MNSTEFTEDVEEVLKSITVKVETEAEDAALDCSVNSRTSEKHSVDSVLTALQDSSKRKQLVSDGLLDSVPGVKRRRLIPEALLAGMRNRENSSPCQGNGEQAGRGRSLGNVWPGEEEPCNDATTPSYKKPLYGISHKIMEKKNPPSGDLLNVYELFEKANASNSPSSLRLLNEPQKRDCGSTGAGTDNDPNIYFLIQKMFYMLNTLTSNMSQLHSKVDLLSLEVSRIKKQVSPTEMVAKFQPPPEYQLTAAELKQIVDQSLSGGDLACRLLVQLFPELFSDVDFSRGCSACGFAAKRKLESLHLQLIRNYVEVYYPSVKDTAVWQAECLPQLNDFFSRFWAQREMEDSQPSGQVASFFEAEQVDPGHFLDNKDQEEALSLDRSSTIASDHVVDTQDLTEFLDEASSPGEFAVFLLHRLFPELFDHRKLGEQYSCYGDGGKQELDPQRLQIIRNYTEIYFPDMQEEEAWLQQCAQRINDELEGLGLDAGSEGDPPRDDCYDSSSLPDDISVVKVEDSFEGERPGRRSKKIWLVPIDFDKLEIPQPDFEVPGADCLLSKEQLRSIYESSLSIGNFASRLLVHLFPELFTHENLRKQYNCSGSLGKKQLDPSRIKLIRHYVQLLYPRAKNDRVWTLEFVGKLDERCRRRDTEQRRSYQQQRKVHVPGPECRDLTSYAINPERFREEFEGPPLPPERSSKDFCKIPLDELVVPSPDFPVPSPYLLSDKEVREIVQQSLSVGNFAARLLVRLFPELFTAENLRLQYNHSGACNKKQLDPTRLRLIRHYVEAVYPVEKMEEVWHYECIPSIDERCRRPNRKKCDILKKAKKVEK | binds | – |
| PGBD3 (protein, UniProt Q8N328 1-593) MPRTLSLHEITDLLETDDSIEASAIVIQPPENATAPVSDEESGDEEGGTINNLPGSLLHTAAYLIQDGSDAESDSDDPSYAPKDDSPDEVPSTFTVQQPPPSRRRKMTKILCKWKKADLTVQPVAGRVTAPPNDFFTVMRTPTEILELFLDDEVIELIVKYSNLYACSKGVHLGLTSSEFKCFLGIIFLSGYVSVPRRRMFWEQRTDVHNVLVSAAMRRDRFETIFSNLHVADNANLDPVDKFSKLRPLISKLNERCMKFVPNETYFSFDEFMVPYFGRHGCKQFIRGKPIRFGYKFWCGATCLGYICWFQPYQGKNPNTKHEEYGVGASLVLQFSEALTEAHPGQYHFVFNNFFTSIALLDKLSSMGHQATGTVRKDHIDRVPLESDVALKKKERGTFDYRIDGKGNIVCRWNDNSVVTVASSGAGIHPLCLVSRYSQKLKKKIQVQQPNMIKVYNQFMGGVDRADENIDKYRASIRGKKWYSSPLLFCFELVLQNAWQLHKTYDEKPVDFLEFRRRVVCHYLETHGHPPEPGQKGRPQKRNIDSRYDGINHVIVKQGKQTRCAECHKNTTFRCEKCDVALHVKCSVEYHTE | binds | – |
| ZNF423 (mouse) (protein, UniProt Q80TS5 1-1292) MSRRKQAKPRSVKVEEGEASDFSLAWDSSVAAAGGLEGEPECDRKTSRALEDRNSVTSQEERNEDDEDVEDESIYTCDHCQQDFESLADLTDHRAHRCPGDGDDDPQLSWVASSPSSKDVASPTQMIGDGCDLGLGEEEGGTGLPYPCQFCDKSFIRLSYLKRHEQIHSDKLPFKCTFCSRLFKHKRSRDRHIKLHTGDKKYHCHECEAAFSRSDHLKIHLKTHSSSKPFKCSVCKRGFSSTSSLQSHMQAHKKNKEHLAKSEKEAKKDDFMCDYCEDTFSQTEELEKHVLTLHPQLSEKADLQCIHCPEVFVDESTLLAHIHQAHANQKHKCPMCPEQFSSVEGVYCHLDSHRQPDSSNHSVSPDPVLGSVASMSSATPDSSASVERGSTPDSTLKPLRGQKKMRDDGQSWPKVVYSCPYCSKRDFTSLAVLEIHLKTIHADKPQQSHTCQICLDSMPTLYNLNEHVRKLHKSHAYPVMQFGNISAFHCNYCPEMFADINSLQEHIRVSHCGPNANPPDGNNAFFCNQCSMGFLTESSLTEHIQQAHCSVGSTKLESPVVQPTQSFMEVYSCPYCTNSPIFGSILKLTKHIKENHKNIPLAHSKKSKAEQSPVSSDVEVSSPKRQRLSGSANSISNGEYPCNQCDLKFSNFESFQTHLKLHLELLLRKQACPQCKEDFDSQESLLQHLTVHYMTTSTHYVCESCDKQFSSVDDLQKHLLDMHTFVLYHCTLCQEVFDSKVSIQVHLAVKHSNEKKMYRCTACNWDFRKEADLQVHVKHSHLGNPAKAHKCIFCGETFSTEVELQCHITTHSKKYNCRFCSKAFHAVILLEKHLREKHCVFDAAAENGTANGVPPTSTKKAEPADLQGMLLKNPEAPNSHEASEDDVDASEPMYGCDICGAAYTMEVLLQNHRLRDHNIRPGEDDGSRKKAEFIKGSHKCNVCSRTFFSENGLREHLQTHRGPAKHYMCPICGERFPSLLTLTEHKVTHSKSLDTGTCRICKMPLQSEEEFIEHCQMHPDLRNSLTGFRCVVCMQTVTSTLELKIHGTFHMQKLAGSSAASSPNGQGLQKLYKCALCLKEFRSKQDLVRLDVNGLPYGLCAGCMARSANGQVGGLAPPEPADRPCAGLRCPECNVKFESAEDLESHMQVDHRDLTPETSGPRKGAQTSPVPRKKTYQCIKCQMTFENEREIQIHVANHMIEEGINHECKLCNQMFDSPAKLLCHLIEHSFEGMGGTFKCPVCFTVFVQANKLQQHIFAVHGQEDKIYDCSQCPQKFFFQTELQNHTMSQHAQ | – | binds |

The remaining lines, values ahead:

| binding [1] | binding [2] | Binder |
| --- | --- | --- |
| binds | – | VRTN (human) (protein, UniProt Q9H8Y1 1-702) MTSRNQLVQKVLQELQEAVECEGLEGLIGASLEAKQVLSSFTLPTCREGGPGLQVLEVDSVALSLYPEDAPRNMLPLVCKGEGSLLFEAASMLLWGDAGLSLELRARTVVEMLLHRHYYLQGMIDSKVMLQAVRYSLCSEESPEMTSLPPATLEAIFDADVKASCFPSSFSNVWHLYALASVLQRNIYSIYPMRNLKIRPYFNRVIRPRRCDHVPSTLHIMWAGQPLTSHFFRHQYFAPVVGLEEVEAEGAPGVAPALPALAPLSSPAKTLELLNREPGLSYSHLCERYSVTKSTFYRWRRQSQEHRQKVAARFSAKHFLQDSFHRGGVVPLQQFLQRFPEISRSTYYAWKHELLGSGTCPALPPREVLGMEELEKLPEEQVAEEELECSALAVSSPGMVLMQRAKLYLEHCISLNTLVPYRCFKRRFPGISRSTYYNWRRKALRRNPSFKPAPALSAAGTPQLASVGEGAVIPWKSEAEEGAGNATGEDPPAPGELLPLRMPLSRWQRRLRRAARRQVLSGHLPFCRFRLRYPSLSPSAFWVWKSLARGWPRGLSKLQVPVPTLGKGGQEAEEKQEKEAGRDVTAVMAPPVGASSEDVEGGPSREGALQEGATAQGQPHSGPLLSQPVVAAAGGRDGRMLVMDMIATTKFKAQAKLFLQKRFQSKSFPSYKEFSALFPLTARSTYYMWKRALYDGLTLVDG |
| – | binds | VRTN (mouse) (protein, UniProt Q3SYK4 1-740) MTSRDQLVQQVLRDLQEAVESEGLEGLIGAALEAKQVLSSFTLPICQKGGPGAQVLEVDSVALSLYPEDAPRNMLPLVCKGEGSLLFEATSLLLWGHTGLSLELRARTVVEMLLHRHYYLQGMIDSKVMLQAVRYSLCSEESPEMTNLSFATLEAIFDADVKATCFPTSFSNVWHLYALASILECNIYSIYPMRNIKIRPYFNRVIMPRCSTHVTSMLHIMWAGQPLTSHLFRHQYFAPVVGLEEVEADCTASLNPVPPNLGPLLPPAKTLELLNREPGLSYSHLCDRISITKSTFYRWRRQTQEHRQKVATRFSAKHFLQDSFHRGGFVPLQQFLQRFPEISRSTYYAWKHELLGSGANSALGPATPSREALAVPEVERPPGKKAAEEVGCSSLAAAMLSPPSMILMQRAKSFLEYCISLNKLVPYRCFKCRFPGISRSTYYNWRRKALRRTPSFKLSQAAFETAESLQPTDVGKETPFSLKREAGEEETGKAGSGAPLTSRGLISPKMPLSRWQRRLRRAARKQVLNGHLPFCRFRLRYPSLLPSTFWVWKSLSRRSPGMQIPSLSQRRQKPQGRQKPEGRQKPEEQQKPEGRQKPEGRQKPVEPQAMEADQNVPAMVVPPAETLPVATSPEDVPGGPSREGNIIQEAAMTQSQPHSGSLPSQTLAEAPGGSDGQVLVMDMLTTTRFKAQAKLFLQKRFQSKTFPSYKEFQALFPLTARSTYYMWKRALYEGLTLIDG |
